These results are taken from the supplement of paper PMC10849652.

Sequences of proteins named here, by UniProt entry; tags and fusion partners are left off. A change or cut given only in a name is not applied to a line headed by its entry.
UniProt Q96MP8: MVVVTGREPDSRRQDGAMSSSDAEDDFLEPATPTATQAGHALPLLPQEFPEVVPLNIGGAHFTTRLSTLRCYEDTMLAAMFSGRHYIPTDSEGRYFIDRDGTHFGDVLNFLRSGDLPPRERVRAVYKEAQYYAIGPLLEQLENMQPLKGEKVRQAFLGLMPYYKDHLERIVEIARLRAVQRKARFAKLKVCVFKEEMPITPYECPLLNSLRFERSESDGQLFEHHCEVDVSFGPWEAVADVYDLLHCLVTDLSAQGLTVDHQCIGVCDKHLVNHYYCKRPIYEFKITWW
UniProt Q719H9: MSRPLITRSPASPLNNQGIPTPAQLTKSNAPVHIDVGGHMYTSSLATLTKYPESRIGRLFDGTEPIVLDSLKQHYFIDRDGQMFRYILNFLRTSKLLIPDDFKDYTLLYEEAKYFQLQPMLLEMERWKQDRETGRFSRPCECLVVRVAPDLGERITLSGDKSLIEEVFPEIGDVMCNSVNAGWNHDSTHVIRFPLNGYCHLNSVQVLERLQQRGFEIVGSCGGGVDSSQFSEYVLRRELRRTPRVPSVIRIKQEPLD
UniProt O15550, whole entry, looked up: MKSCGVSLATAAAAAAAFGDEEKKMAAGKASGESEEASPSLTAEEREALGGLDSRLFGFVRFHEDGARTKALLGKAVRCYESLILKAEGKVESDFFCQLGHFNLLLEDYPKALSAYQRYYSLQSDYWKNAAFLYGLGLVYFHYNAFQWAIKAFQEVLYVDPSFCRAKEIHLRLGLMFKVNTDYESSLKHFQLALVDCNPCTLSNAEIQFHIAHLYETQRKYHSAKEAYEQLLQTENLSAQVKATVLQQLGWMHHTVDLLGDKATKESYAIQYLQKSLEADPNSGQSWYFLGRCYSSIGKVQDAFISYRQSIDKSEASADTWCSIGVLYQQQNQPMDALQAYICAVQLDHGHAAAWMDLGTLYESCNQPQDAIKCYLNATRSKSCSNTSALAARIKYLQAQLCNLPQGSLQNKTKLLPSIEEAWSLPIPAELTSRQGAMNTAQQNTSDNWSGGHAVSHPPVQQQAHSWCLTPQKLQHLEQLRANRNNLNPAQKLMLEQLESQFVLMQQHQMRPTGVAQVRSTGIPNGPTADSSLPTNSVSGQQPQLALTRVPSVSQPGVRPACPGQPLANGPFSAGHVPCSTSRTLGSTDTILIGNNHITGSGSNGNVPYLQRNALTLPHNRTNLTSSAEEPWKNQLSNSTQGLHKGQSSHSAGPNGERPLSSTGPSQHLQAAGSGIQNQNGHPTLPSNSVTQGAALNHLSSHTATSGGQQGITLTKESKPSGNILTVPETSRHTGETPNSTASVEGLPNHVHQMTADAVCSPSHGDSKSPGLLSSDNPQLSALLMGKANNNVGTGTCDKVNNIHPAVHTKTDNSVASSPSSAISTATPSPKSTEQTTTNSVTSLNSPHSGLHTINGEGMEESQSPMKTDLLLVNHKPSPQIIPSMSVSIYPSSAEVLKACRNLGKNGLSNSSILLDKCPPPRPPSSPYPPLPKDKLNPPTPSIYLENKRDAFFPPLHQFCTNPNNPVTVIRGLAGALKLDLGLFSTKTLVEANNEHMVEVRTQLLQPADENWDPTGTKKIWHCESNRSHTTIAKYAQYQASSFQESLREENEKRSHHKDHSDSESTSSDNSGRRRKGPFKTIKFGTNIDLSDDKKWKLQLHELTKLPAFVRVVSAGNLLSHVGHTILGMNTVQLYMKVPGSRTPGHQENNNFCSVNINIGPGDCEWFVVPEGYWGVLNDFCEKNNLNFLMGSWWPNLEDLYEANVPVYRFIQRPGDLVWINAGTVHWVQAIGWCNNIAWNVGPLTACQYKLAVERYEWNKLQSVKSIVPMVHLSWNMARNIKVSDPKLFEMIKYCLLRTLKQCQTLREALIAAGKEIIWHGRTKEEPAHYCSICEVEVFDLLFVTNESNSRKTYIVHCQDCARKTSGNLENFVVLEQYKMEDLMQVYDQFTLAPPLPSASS
UniProt Q9Y2M5: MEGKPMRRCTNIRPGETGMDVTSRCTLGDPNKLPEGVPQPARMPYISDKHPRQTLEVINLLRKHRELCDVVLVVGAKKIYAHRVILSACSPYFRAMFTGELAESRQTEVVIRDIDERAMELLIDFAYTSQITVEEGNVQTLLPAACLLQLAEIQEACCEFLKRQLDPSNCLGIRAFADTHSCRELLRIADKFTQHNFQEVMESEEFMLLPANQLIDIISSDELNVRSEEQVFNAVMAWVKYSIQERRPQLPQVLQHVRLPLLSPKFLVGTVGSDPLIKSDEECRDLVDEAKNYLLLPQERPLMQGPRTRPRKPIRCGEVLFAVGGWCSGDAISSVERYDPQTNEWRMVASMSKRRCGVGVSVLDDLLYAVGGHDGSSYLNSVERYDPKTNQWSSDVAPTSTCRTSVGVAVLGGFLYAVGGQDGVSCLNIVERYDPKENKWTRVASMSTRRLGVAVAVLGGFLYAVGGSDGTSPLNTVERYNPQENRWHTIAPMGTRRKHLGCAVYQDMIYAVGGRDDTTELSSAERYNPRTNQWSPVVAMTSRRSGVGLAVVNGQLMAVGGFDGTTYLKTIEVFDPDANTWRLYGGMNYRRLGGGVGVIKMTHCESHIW
UniProt O60268: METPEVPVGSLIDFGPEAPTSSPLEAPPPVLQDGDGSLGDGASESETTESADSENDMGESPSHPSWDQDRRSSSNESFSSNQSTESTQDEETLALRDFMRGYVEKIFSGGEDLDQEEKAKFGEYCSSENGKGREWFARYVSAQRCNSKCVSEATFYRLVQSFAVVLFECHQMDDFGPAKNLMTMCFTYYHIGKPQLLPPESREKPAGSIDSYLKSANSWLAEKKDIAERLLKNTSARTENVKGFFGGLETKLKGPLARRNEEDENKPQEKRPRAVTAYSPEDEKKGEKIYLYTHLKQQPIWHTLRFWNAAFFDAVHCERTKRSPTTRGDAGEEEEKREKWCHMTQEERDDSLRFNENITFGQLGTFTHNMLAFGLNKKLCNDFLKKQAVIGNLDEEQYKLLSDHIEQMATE
UniProt Q9H1H9: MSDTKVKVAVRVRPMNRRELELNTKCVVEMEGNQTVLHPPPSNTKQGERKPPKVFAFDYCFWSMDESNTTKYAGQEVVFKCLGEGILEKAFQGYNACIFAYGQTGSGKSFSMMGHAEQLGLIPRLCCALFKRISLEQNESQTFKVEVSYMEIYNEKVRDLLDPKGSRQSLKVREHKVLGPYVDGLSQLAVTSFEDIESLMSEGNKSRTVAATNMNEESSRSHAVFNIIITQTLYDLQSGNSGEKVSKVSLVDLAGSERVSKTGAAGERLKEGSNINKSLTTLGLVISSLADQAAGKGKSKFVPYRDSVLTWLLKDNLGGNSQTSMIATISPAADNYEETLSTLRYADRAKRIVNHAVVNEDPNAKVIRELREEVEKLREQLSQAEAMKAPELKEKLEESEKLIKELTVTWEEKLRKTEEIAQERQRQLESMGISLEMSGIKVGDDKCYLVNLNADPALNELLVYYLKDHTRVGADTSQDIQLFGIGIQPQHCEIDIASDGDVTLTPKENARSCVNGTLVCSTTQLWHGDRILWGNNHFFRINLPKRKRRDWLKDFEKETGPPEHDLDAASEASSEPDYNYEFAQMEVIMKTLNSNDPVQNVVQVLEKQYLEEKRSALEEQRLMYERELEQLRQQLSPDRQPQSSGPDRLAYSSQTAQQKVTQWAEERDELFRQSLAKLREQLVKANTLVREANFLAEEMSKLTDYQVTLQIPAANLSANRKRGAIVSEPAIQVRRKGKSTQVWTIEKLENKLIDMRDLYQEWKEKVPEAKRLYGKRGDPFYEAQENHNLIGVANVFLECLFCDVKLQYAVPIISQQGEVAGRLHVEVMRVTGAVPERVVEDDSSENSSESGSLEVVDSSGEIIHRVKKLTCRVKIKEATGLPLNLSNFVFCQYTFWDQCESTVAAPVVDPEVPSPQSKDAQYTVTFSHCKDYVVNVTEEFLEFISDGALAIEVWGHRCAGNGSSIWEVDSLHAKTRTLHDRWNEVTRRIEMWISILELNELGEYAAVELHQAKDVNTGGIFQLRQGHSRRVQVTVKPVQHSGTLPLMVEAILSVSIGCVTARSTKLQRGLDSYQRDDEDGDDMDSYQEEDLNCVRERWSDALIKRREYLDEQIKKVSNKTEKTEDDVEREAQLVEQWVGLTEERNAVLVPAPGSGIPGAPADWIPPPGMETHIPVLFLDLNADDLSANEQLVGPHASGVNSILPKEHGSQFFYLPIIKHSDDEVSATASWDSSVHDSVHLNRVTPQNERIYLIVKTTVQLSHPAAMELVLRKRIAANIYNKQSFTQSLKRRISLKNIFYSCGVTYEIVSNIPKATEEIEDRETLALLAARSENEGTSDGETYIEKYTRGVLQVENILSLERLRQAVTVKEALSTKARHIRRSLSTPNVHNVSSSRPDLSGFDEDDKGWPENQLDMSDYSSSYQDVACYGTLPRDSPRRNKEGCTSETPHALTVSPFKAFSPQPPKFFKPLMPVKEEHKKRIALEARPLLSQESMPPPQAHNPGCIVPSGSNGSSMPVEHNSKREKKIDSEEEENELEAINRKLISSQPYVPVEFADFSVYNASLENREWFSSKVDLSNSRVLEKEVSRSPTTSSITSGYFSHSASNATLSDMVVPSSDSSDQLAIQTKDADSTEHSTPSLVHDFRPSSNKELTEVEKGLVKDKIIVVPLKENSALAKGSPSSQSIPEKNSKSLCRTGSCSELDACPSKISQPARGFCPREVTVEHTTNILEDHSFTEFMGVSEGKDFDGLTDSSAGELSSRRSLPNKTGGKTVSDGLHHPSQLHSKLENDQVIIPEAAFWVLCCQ
UniProt O60870: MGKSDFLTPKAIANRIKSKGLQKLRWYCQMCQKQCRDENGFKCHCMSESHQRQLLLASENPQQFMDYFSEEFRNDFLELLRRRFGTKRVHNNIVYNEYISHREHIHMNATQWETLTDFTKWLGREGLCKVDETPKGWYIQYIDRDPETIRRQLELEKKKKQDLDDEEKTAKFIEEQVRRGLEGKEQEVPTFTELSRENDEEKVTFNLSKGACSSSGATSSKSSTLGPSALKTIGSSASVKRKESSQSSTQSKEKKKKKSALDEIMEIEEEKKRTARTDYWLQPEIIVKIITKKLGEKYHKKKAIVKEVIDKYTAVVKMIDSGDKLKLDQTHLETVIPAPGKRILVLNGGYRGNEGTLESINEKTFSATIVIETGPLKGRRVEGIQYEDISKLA
UniProt Q9H910: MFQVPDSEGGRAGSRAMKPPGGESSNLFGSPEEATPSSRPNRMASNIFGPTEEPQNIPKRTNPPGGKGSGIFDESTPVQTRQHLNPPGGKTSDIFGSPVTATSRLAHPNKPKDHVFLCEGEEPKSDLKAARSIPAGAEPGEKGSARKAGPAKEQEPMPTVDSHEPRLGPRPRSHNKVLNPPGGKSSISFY
UniProt Q6P597: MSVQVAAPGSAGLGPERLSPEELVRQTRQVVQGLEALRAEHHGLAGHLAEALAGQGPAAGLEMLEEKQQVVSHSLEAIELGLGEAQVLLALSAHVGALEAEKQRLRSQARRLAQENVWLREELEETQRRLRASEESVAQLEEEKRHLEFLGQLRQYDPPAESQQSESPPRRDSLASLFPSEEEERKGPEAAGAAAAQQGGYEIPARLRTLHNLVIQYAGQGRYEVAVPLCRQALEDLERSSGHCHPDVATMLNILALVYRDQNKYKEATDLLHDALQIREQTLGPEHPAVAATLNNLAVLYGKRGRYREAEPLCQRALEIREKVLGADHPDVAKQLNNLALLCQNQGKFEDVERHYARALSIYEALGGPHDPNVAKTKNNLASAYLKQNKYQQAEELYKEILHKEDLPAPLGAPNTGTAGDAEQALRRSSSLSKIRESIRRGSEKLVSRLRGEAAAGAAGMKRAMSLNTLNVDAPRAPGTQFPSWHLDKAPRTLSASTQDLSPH
UniProt Q9P0J7: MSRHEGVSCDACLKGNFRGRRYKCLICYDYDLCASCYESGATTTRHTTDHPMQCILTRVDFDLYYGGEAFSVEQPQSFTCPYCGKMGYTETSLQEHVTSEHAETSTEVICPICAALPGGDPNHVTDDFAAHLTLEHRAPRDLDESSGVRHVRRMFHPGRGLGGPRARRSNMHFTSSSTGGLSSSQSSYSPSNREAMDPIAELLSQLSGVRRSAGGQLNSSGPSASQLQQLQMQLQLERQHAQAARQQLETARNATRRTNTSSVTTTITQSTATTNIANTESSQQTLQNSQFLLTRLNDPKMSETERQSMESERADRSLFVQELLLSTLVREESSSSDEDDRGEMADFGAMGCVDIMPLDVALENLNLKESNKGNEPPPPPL
UniProt P17275: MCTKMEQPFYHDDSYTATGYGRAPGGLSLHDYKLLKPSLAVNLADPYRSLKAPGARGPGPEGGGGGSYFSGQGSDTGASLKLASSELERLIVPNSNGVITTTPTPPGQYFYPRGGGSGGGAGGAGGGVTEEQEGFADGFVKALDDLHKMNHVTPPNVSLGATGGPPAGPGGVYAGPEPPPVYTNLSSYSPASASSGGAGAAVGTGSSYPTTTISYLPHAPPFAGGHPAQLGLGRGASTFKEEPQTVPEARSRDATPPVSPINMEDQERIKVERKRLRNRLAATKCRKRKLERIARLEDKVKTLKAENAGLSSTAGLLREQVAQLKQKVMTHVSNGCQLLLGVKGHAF

The other results are listed elsewhere or left out.

Compound in one test: CN1CCN(CCOc2cc(OC3CCOCC3)c3c(Nc4c(Cl)ccc5c4OCO5)ncnc3c2)CC1 [saracatinib]
The test is described as follows: log2 fold change, soluble protein after heating vs DMSO (PISA); higher = thermal stabilisation; K562 cells, 10 uM, 30 min; active = over 0.2 and 3.5 SD of the protein, either way, in both replicates (recomputed). Summed up:
(§1)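 K562 cells at 2×10^6 cells/mL were given 10 μM compound for 30 min. Aliquots then went through 3 min of heating across 48°C-58°C, were pooled, and were extracted in PBS with 0.5% NP-40 at 4°C, and the supernatant after 21,000xg for 90 min was quantified by TMTpro 16plex LC-MS/MS with channel sums equalised. Thermal stability relative to control samples, from duplicates, is given as log2 fold change.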
For the target KCTD7 (UniProt Q96MP8), the log2 fold change was inactive: 0.075. As for KIF16B isoform 2 (UniProt Q96L93), the log2 fold change was inactive: -0.138. For KCTD1 (UniProt Q719H9), the log2 fold change was inactive: 0.021.

For the target KDM6A (UniProt O15550), the log2 fold change was inactive: -0.393. With KLHL20 (UniProt Q9Y2M5), the log2 fold change was inactive: 0.063.

In the case of KDELR3 (UniProt O43731), the log2 fold change is inactive: 0.374.

As for KIF21B (UniProt O75037), the log2 fold change is inactive: -0.181.

Compound in the next test: CN1CCN(c2nc(C3=C(c4c[nH]c5ccccc45)C(=O)NC3=O)c3ccccc3n2)CC1 [sotrastaurin]
Described as above. Summed up: as §1
In the case of KIAA1109 (UniProt Q2LD37), the log2 fold change is inactive: 0.01.

Consider ITSN1 (UniProt Q15811), for which the log2 fold change is inactive: -0.147. As to KIAA0513 (UniProt O60268), the log2 fold change was inactive: -0.126.

Turning to JUN (UniProt P05412), the log2 fold change is inactive: 0.086. KIF26A (UniProt Q9ULI4): the log2 fold change was inactive: 0.005.

As to KIF13A isoform 4 (UniProt Q9H1H9), the log2 fold change is inactive: -0.027.

For the target KIN (UniProt O60870), the log2 fold change was inactive: -0.085.

KSR2 (UniProt Q6VAB6): the log2 fold change was inactive: -0.096. As for JPT2 isoform 2 (UniProt Q9H910), the log2 fold change was inactive: 0.114. Same read-out and setting: for KLC3 isoform 3 (UniProt Q6P597) the value was inactive: -0.093; for KDM2B (UniProt Q8NHM5), inactive: -0.134; for KIFC3 isoform 6 (UniProt Q9BVG8), inactive: 0.128. On the same count and under the same terms, the same measure for KCMF1 (UniProt Q9P0J7): inactive: -0.124; for JUNB (UniProt P17275): inactive: 0.006; for KAT7 (UniProt O95251): inactive: -0.081. In the case of KCTD21 (UniProt Q4G0X4), the log2 fold change was inactive: 0.061. As to KMT5A (UniProt Q9NQR1), the log2 fold change is inactive: -0.18. On the same count and under the same terms, the same measure for KIF1C (UniProt O43896): inactive: -0.14.

Compound in another test: CN1CC[C@H](c2c(O)cc(O)c3c(=O)cc(-c4ccccc4Cl)oc23)[C@H](O)C1 [alvocidib]
Described as above. A digest of the protocol:
as §1
KIAA0513 (UniProt O60268): the log2 fold change was inactive: 0.074.

As for KIF16B isoform 2 (UniProt Q96L93), the log2 fold change is inactive: 0.091. Consider JUN (UniProt P05412), for which the log2 fold change was inactive: -0.036. In the case of KALRN (UniProt O60229), the log2 fold change was inactive: -0.03. As to KIFC1 (UniProt Q9BW19), the log2 fold change was inactive: -0.014. On the same count and under the same terms, for KDM3A (UniProt Q9Y4C1) the value was inactive: 0.103. Consider KCMF1 (UniProt Q9P0J7), for which the log2 fold change was inactive: -0.04. On the same count and under the same terms, the same measure for JUNB (UniProt P17275): inactive: 0.102; for KDM6A (UniProt O15550): inactive: 0.028; for KIF1C (UniProt O43896): inactive: -0.343. Regarding KIAA0040 (UniProt Q15053), the log2 fold change is inactive: 0.078.
